Values quoted from earlier work, collected in US12569498B2, “Methods and compositions for the prevention and treatment of ischemia reperfusion injury and infection” (CHILDREN'S NATIONAL MEDICAL CENTER, priority 2019, dated 2026).
At least one compound was matched to its structure with a doubt left.

Conditions: literature, cited from earlier work
[1] = administered prior to testicular reperfusion

| Structure (SMILES) | apoptosis [1] | oxidative stress [1] | testicular myeloperoxidase activity (acutely, animal models of testicular torsion) | long term spermatogenesis (animal models of testicular torsion) |
| --- | --- | --- | --- | --- |
| CO[C@H]1C[C@@H]2CC[C@@H](C)[C@@](O)(O2)C(=O)C(=O)N2CCCC[C@H]2C(=O)O[C@H]([C@H](C)C[C@@H]2CC[C@@H](O)[C@H](OC)C2)CC(=O)[C@H](C)/C=C(\C)[C@@H](O)[C@@H](OC)C(=O)[C@H](C)C[C@H](C)/C=C/C=C/C=C/1C [Rapamycin] | decrease apoptosis | decrease |  |  |
| C[C@@H]1O[C@@H](OC[C@H]2O[C@@H](Oc3c(-c4ccc(O)c(O)c4)oc4cc(O)cc(O)c4c3=O)[C@H](O)[C@@H](O)[C@@H]2O)[C@H](O)[C@H](O)[C@H]1O [Rutin] |  |  | decrease testicular myeloperoxidase activity | preserve long term spermatogenesis |
